Experimental data: patent US8940705B2, “Method of treating disease and selectively modulating transcriptional regulation by a glucocorticoid receptor by administering aclacinomycin and dexamethasone” (The Regents of the University of California, priority 2009, dated 2015)
At least one structure is not confirmed: it was looked up by name or label, or the drawing left a doubt.

Experiments:
Type in all cases: cell-based
[1] = molecular target: T1, GR (Homo sapiens, UniProt P04150); assay: Multi-promoter fluorescent protein reporter compound screen for GR modulators; parameters: endogenous in cells; host or cells: A549; conditions: A549 cells, library compounds 2.5 μM with dex 100 nM; reporter fluorescence relative to plate mean
T1 sequence (P04150 1-777): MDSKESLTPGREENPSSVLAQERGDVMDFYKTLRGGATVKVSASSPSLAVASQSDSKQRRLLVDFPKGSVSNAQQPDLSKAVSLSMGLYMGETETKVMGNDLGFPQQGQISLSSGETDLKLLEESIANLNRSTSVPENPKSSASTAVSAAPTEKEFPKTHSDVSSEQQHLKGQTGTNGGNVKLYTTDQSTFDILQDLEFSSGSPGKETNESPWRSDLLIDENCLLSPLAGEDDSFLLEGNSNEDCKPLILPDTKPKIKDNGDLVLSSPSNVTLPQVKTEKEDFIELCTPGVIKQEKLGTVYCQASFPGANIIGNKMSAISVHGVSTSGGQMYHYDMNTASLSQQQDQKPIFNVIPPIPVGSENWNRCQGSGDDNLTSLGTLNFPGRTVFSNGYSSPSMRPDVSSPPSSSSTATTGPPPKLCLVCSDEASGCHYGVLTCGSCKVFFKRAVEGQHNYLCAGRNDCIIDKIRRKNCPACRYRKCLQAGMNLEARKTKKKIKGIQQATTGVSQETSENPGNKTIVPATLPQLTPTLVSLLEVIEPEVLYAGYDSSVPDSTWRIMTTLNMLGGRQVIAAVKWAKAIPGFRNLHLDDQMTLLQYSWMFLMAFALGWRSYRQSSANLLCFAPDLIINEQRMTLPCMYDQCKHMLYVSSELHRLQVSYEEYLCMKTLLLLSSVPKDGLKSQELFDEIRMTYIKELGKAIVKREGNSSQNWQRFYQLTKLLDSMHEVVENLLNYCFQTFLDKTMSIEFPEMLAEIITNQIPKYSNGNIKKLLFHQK
Method: Compound Screen. A549 cells were transfected with an equal mixture of pENaC-CFP, pGILZ-YFP, pFKBP5-OFP (1.3 μg each), or with pSV40-ChFP (4 μg). The next day, cells were mixed (˜1.8×10^4 of the cells triple-transfected with pENaC-CFP, pGILZ-YFP, pFKBP5-OFP; ˜2×10^3 cells transfected with pSV40-ChFP) and replated into 96 well plates (Costar 3603). 2 hours later, library compounds (2.5 μM) and dex (100 nM) were added using a Biomek robot. The following day, cells were fixed for 4 minutes in 4% paraformaldehyde and fluorescence was measured sequentially for each reporter using a Safire plate reader (Tecan). Hits were scored based on the mean and standard deviation (s.d.) of the experimental wells on each plate. Criteria for a hit were if one reporter was more than 1.5×s.d. from the mean in duplicate, or if two reporters were more than 0.8×s.d. from the mean in duplicate. If the control SV40-ChFP was more than 2×s.d. from the mean in a single plate, or 0.8×s.d. in duplicate plates (in the same direction as the GR reporters), the well was not scored as a hit.
We used the system of Example 1 to screen a library of 1040 natural products and FDA-approved drugs for modulators of GR signaling (Abbott, A. Nature 417:109). The screen design is outlined in FIG. 2. The pENaC-CFP, pGILZ-YFP, and pFKBP5-OFP reporters indicated GR signaling, while pSV40-mCh, an internal control, excluded non-specific transcription inhibitors and toxins. We screened the library in duplicate in the presence of saturating dex (100 nM). Z′, a function that reflects the ability to discriminate between control and experimental wells (Zhang, J. H. et al., J Biomol Screen 4:67-73 (1999)), was determined for dex treatment of each GR reporter. The Z′ values were: Z′(ENAC-CFP)=0.68; Z′(GILZ-YFP)=0.64; and Z′(FKBP5-OFP)=0.66. These indicate that the screen should efficiently identify compounds that increase or decrease fluorescence from any of the three experimental promoters (Zhang, J. H. et al., J Biomol Screen 4:67-73 (1999)).

[2] = molecular target: T1, GR; assay: Luciferase assays, GR-responsive reporters, A549 cells; parameters: endogenous in cells; host or cells: A549; conditions: whether the drug acted dose-dependently on GR-luciferase reporters
Method: (§1) Transfections. The day prior to transfection, ˜3×10^5 cells were plated in 6-well dishes. Transfections used Lipofectamine 2000 (Invitrogen). 4 μg of total plasmid DNA were used for each transfection. For A549 cells, 500 μL of DNA/lipofectamine complex was added to 1.5 ml of DMEM with pen/strep and 5% FBS. For U2OS cells, 500 μl of DNA/lipofectamine complex was added to 1.5 ml of Optimem. After 3-4 hours of incubation, media was replaced with standard growth media.
(§2) Luciferase assays. Luciferase assays used the Promega Dual-Luciferase Reporter system. Briefly, cells were transfected with various firefly luciferase plasmids and pSV40-RL at a ratio of 10:1. The day after transfection, cells were split into 96-well dishes and treated with dex and various drugs. Cells were harvested in 50 μl 1XPLB (Promega) 12-18 hr after drug treatment and luciferase assays were performed on 10 μl of lysate. Luminscence was detected using an Ultra Evolution plate reader (Tecan).

[3] = molecular target: T2, GR (Rattus norvegicus, UniProt P06536); assay: Luciferase assays, GR-responsive reporters, U2OS-GR cells; conditions: pENaC-luc and pSV40-rl, with dex
T2 construct: expressed in transfected cells; host or cells: U2OS-GR
T2 sequence (P06536 1-795): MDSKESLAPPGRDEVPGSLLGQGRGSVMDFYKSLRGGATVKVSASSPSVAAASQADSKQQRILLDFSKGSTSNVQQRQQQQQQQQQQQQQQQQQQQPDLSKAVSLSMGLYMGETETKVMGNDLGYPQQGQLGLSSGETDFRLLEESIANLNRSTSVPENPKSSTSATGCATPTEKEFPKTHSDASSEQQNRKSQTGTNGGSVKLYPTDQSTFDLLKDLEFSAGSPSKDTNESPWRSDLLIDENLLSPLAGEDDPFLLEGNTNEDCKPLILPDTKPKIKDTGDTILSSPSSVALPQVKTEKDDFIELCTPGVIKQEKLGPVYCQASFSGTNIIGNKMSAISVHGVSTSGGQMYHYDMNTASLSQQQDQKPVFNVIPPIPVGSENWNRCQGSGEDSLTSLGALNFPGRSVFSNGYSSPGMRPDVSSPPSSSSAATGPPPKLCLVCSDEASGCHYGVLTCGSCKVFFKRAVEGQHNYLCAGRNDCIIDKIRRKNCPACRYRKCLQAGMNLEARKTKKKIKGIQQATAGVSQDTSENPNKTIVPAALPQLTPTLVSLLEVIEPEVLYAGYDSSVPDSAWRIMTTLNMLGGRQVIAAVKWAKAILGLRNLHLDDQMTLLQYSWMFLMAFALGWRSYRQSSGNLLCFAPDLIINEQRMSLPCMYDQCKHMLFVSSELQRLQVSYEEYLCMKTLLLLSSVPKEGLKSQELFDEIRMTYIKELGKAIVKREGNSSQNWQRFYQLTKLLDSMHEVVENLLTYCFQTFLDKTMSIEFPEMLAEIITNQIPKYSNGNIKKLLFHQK
Method: as §1, §2

[4] = test system: GR; assay: qPCR of endogenous GR target genes, cell line not distinguished (FIG. 4B, 5D); conditions: with dex, 24 hr
From the text: Quantitative PCR. Total RNA isolation used Trizol and Pure Link (Invitrogen). […] Rpl19 expression was used for data normalization.

SMILES | ENaC-CFP [1] | FKBP5-OFP [1] | GILZ-YFP [1] | Dose dependent [2] | GR activity (luciferase reporter) [3] | expression of endogenous GR target genes (qPCR), overall [4] | induction of endogenous FKBP5 (qPCR) [4]
CCC(=O)O[C@H]1[C@H](O[C@@H]2[C@@H](C)[C@H](O[C@H]3C[C@@](C)(OC)[C@@H](O)[C@H](C)O3)[C@@H](C)C(=O)O[C@H](CC)[C@@](C)(O)[C@H](O)[C@@H](C)C(=O)[C@H](C)C[C@@]2(C)O)O[C@H](C)C[C@@H]1N(C)C [Erythromycin estolate] | No effect | ↑ (0.8 to 2 s.d. greater than the mean (↑)) | ↑^d (0.8 to 2 s.d. greater than the mean (↑)) | did not exhibit dose dependent effects and no |  |  | 
C=C[C@@]1(C)CC(=O)[C@]2(O)[C@@]3(C)[C@@H](O)CCC(C)(C)[C@@H]3[C@H](O)[C@H](OC(C)=O)[C@@]2(C)O1 [Forskolin] |  |  |  |  | increases GR activity | modestly increased | significant
